Data on one molecule can be found in PMC13321232.

Results are given in words; binding and its absence hold for the method and conditions named. In cells and extracts the contact can be indirect. Some entries that bind do so weakly or less than the wild type. Where a sequence is shown, tags or fusion partners need not be part of it.

The assay deals with T1, PXY-FLAG (insect cell construct) (Arabidopsis thaliana) (UniProt Q9FII5).
T1 sequence: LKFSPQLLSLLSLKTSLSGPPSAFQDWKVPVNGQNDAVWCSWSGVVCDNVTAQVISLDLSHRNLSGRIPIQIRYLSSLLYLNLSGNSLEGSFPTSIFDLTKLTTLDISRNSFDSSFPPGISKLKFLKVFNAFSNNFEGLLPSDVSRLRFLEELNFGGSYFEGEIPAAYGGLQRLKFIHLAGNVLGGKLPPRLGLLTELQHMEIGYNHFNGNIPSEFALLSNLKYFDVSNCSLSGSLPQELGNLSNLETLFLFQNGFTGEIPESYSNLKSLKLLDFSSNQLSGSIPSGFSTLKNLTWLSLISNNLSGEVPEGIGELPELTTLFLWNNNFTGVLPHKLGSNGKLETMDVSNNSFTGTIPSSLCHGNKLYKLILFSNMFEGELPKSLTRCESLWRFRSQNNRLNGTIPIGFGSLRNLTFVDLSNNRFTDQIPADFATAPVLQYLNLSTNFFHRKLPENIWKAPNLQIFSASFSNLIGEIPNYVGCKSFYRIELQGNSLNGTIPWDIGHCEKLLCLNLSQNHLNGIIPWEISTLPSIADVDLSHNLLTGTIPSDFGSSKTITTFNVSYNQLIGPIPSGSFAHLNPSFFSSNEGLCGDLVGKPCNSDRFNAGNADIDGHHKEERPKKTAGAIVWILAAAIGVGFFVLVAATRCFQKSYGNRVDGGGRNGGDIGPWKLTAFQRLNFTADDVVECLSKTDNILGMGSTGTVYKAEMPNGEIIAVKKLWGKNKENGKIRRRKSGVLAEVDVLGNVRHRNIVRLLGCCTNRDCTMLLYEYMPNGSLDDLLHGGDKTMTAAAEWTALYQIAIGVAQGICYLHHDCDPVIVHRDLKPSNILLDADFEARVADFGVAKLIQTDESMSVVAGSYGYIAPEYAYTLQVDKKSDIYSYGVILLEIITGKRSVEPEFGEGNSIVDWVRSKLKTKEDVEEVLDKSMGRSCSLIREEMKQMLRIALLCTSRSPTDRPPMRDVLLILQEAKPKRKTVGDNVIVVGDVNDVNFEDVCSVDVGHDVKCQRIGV
The assay is described as follows: co-IP; PXY-flag and ER-twinstrep coexpressed in Sf21 cells; membranes solubilised in 2% DDM, diluted to 0.1% DDM; anti-FLAG M2 magnetic beads, 2 h at 4 °C; eluted with 3x FLAG peptide; Twinstrep-tag and Flag-tag immunoblots. On the technique in general: Immunoblotting shows a protein as a band on a membrane.

B1: ER-twinstrep (insect cell construct) (receptor, UniProt Q42371 25-976)
chain: EEGATLLEIKKSFKDVNNVLYDWTTSPSSDYCVWRGVSCENVTFNVVALNLSDLNLDGEISPAIGDLKSLLSIDLRGNRLSGQIPDEIGDCSSLQNLDLSFNELSGDIPFSISKLKQLEQLILKNNQLIGPIPSTLSQIPNLKILDLAQNKLSGEIPRLIYWNEVLQYLGLRGNNLVGNISPDLCQLTGLWYFDVRNNSLTGSIPETIGNCTAFQVLDLSYNQLTGEIPFDIGFLQVATLSLQGNQLSGKIPSVIGLMQALAVLDLSGNLLSGSIPPILGNLTFTEKLYLHSNKLTGSIPPELGNMSKLHYLELNDNHLTGHIPPELGKLTDLFDLNVANNDLEGPIPDHLSSCTNLNSLNVHGNKFSGTIPRAFQKLESMTYLNLSSNNIKGPIPVELSRIGNLDTLDLSNNKINGIIPSSLGDLEHLLKMNLSRNHITGVVPGDFGNLRSIMEIDLSNNDISGPIPEELNQLQNIILLRLENNNLTGNVGSLANCLSLTVLNVSHNNLVGDIPKNNNFSRFSPDSFIGNPGLCGSWLNSPCHDSRRTVRVSISRAAILGIAIGGLVILLMVLIAACRPHNPPPFLDGSLDKPVTYSTPKLVILHMNMALHVYEDIMRMTENLSEKYIIGHGASSTVYKCVLKNCKPVAIKRLYSHNPQSMKQFETELEMLSSIKHRNLVSLQAYSLSHLGSLLFYDYLENGSLWDLLHGPTKKKTLDWDTRLKIAYGAAQGLAYLHHDCSPRIIHRDVKSSNILLDKDLEARLTDFGIAKSLCVSKSHTSTYVMGTIGYIDPEYARTSRLTEKSDVYSYGIVLLELLTRRKAVDDESNLHHLIMSKTGNNEVMEMADPDITSTCKDLGVVKKVFQLALLCTKRQPNDRPTMHQVTRVLGSFMLSEQPPAATDTSATLAGSCYVDEYANLKTPHSVNCSSMSASDAQLFLRFGQVISQNSE
Consider B1, for which the binding entry was “binds”.
